Results are given in words; binding and its absence hold for the method and conditions named. Binding can be weak; no strength is given. Sequences can lack the tags named with a protein.

By UniProt entry, the sequences of proteins in these tests, tags left out. Where a name states a change or a piece, a line headed by the entry shows the natural chain unless it says otherwise.
UniProt P14859: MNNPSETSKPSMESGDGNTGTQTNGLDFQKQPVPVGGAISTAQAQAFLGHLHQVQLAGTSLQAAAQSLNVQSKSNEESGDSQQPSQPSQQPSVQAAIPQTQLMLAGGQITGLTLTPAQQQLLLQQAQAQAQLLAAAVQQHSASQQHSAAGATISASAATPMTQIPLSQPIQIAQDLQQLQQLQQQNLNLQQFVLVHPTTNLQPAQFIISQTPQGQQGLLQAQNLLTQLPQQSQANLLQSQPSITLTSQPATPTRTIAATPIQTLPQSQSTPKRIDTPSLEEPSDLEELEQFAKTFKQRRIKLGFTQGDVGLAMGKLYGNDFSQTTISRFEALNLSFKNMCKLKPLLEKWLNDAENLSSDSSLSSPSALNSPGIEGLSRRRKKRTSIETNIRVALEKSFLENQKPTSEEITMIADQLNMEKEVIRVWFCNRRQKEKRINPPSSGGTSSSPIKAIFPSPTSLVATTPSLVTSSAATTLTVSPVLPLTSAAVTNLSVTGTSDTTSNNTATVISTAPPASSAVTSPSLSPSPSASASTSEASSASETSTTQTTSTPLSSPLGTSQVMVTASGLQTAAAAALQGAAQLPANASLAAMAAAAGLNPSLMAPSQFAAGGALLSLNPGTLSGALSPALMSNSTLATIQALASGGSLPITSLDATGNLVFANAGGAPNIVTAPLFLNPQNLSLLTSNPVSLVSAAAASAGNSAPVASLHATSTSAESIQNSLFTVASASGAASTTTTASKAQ
UniProt P09086: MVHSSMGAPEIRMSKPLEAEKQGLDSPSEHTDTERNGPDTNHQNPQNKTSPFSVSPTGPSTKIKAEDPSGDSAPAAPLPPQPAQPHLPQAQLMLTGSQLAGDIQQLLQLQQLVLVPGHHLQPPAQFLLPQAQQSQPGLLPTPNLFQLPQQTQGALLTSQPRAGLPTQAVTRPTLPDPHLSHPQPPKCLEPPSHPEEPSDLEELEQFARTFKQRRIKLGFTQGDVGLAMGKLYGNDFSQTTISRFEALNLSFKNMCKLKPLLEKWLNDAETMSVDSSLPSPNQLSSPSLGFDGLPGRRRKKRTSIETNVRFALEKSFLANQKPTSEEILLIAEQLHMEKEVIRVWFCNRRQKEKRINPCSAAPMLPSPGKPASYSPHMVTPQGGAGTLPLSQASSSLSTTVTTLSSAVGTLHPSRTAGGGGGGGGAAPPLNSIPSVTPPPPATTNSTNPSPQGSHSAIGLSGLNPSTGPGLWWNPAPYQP

The record followed here is paper PMC10812921.

Test [1] addresses tagged DNA-binding POU domain of human OCT1 (POU1) (human) (UniProt P14859). The test is described as follows: native gel or EMSA; ternary complex of POU domain, BOB1 and fluorescein-labelled double-stranded oligonucleotide (PORE^D in Figure 1; octamer variants in the Vk promoter context in Figure 4); 20 mM Tris-HCl pH 7.6, 10% glycerol, 0.14 M NaCl, 0.5 mM EDTA, 0.05% Triton X-100, 0.1 mg/mL BSA, 0.1 mg/mL poly[dI-dC], 5 mM DTT; 20 min at RT; native 6% PAGE in 0.5x TBE; both purified.

Test [2] addresses tagged DNA-binding POU domain of human OCT2 (POU2) (human) (UniProt P09086). Described as above.

B1: full-length human BOB1 protein, double-tagged (protein, UniProt Q16633 1-256)
chain: MLWQKPTAPEQAPAPARPYQGVRVKEPVKELLRRKRGHASSGAAPAPTAVVLPHQPLATYTTVGPSCLDMEGSVSAVTEEAALCAGWLSQPTPATLQPLAPWTPYTEYVPHEAVSCPYSADMYVQPVCPSYTVVGPSSVLTYASPPLITNVTTRSSATPAVGPPLEGPEHQAPLTYFPWPQPLSTLPTSTLQYQPPAPALPGPQFVQLPISIPEPVLQDMEDPRRAASSLTIDKLLLEEEDSDAYALNHTLSVEGF
B1: the binding entry in test [1] and in test [2] was “binds” in each case.
